Results taken from article PMC12222831.

By UniProt entry, the sequences of proteins in these tests, tags left out. Residues count along the entry.
UniProt P11021, residues 19-654: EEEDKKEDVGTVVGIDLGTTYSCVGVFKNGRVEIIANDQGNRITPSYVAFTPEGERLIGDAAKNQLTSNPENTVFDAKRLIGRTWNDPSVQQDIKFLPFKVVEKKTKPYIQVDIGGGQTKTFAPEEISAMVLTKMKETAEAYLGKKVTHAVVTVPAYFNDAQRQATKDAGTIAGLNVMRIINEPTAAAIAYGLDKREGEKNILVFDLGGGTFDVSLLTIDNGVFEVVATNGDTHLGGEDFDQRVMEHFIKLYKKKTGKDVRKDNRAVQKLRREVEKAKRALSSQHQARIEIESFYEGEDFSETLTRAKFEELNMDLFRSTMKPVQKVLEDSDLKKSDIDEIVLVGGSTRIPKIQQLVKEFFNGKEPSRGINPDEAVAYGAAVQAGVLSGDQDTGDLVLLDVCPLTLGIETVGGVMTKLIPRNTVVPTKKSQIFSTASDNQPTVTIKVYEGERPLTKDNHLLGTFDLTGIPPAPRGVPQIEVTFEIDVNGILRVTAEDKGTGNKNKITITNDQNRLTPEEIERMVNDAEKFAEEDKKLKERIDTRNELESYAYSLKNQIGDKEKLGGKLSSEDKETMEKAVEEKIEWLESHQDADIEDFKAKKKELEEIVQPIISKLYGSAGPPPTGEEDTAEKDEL
UniProt P19474: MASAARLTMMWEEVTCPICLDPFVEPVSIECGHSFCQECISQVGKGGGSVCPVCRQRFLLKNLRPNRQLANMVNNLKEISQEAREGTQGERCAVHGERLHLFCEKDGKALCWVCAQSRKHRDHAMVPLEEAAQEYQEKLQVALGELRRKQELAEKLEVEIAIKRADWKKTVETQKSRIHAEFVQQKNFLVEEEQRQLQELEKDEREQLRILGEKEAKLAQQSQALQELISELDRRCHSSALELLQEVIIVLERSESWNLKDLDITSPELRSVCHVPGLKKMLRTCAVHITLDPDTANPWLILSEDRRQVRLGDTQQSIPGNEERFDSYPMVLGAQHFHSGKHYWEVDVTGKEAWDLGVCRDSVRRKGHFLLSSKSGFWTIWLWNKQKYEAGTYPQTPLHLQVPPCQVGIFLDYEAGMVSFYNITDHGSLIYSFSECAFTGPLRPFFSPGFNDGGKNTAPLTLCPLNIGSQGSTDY

Key:
Assay in all cases: affinity purification with mass spectrometry; immunoprecipitation with anti-AKR1C3 or anti-HSPA5 from lysates of OE33 AKR1C3 and SKGT-4 cells; LC-MS/MS, MaxQuant label-free quantification
[1] = molecular target: T1, Aldo-keto reductase 1C3 (AKR1C3), endogenous in SKGT-4 cells (human (endogenous in SKGT-4)) (UniProt P42330)
T1 sequence: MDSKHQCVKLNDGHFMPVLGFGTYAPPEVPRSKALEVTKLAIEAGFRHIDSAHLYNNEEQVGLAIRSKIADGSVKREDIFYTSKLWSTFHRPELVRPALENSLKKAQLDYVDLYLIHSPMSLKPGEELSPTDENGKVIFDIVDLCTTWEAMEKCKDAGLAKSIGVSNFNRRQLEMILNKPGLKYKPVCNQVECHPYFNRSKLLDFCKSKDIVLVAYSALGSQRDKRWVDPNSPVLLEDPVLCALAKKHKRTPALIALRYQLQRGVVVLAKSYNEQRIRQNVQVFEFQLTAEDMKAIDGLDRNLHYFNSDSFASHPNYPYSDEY

[2] = molecular target: T2, Aldo-keto reductase 1C3 (AKR1C3), overexpressed in OE33 cells (OE33 AKR1C3) (UniProt P42330)
T2 sequence: T1 sequence

[3] = molecular target: Heat-shock-protein family A member 5 (HSPA5), endogenous in EAC cells (human (endogenous in OE33 and SKGT-4)) (UniProt P11021)

binding [1]	binding [2]	binding [3]	Substance
binds	binds	–	Heat-shock-protein family A member 5 (HSPA5), endogenous in EAC cells (from UniProt P11021 19-654)
–	–	binds	Tripartite motif-containing protein 21 (TRIM21), endogenous in EAC cells (from UniProt P19474 1-475)

No constants are given. Whether binding was seen depends on the method and setting. Binding seen in cells or lysates may run through a third protein. These calls come from enrichment with a bait or labelling near it, and not all partners need be listed.
